Results taken from paper PMC6652260 (Endocrine Connections, 2019).

By UniProt entry, the sequences of proteins in these tests, tags left out. Where a name states a change or a piece, a line headed by the entry shows the natural chain unless it says otherwise.
UniProt P50233: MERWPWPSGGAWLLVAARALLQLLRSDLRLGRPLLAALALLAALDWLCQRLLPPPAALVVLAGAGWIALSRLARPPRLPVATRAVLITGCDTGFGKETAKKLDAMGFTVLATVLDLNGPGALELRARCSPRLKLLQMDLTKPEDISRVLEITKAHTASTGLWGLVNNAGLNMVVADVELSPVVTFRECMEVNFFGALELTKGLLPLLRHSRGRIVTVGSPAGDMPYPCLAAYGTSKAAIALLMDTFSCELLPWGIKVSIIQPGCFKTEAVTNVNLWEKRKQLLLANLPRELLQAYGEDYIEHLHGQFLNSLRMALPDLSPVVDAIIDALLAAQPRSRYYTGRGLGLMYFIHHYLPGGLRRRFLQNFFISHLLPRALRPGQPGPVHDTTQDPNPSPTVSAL

Biological target: rat placental HSD11B2 (Rattus norvegicus, UniProt P50233)
Experiment: biochemical
Details: read-out: Inhibition of rat placental HSD11B2 activity

Question: For `CC/C(=C(/CC)c1ccc(O)cc1)c1ccc(O)cc1` [DES, Diethylstilbestrol], which inhibition at 100 µM is on record?
Answer: > 50%
